Measurements as given in article PMC9855889.
Results are given in words; binding and its absence hold for the method and conditions named. In cells and extracts the contact can be indirect. These calls come from enrichment with a bait or labelling near it, and not all partners need be listed. No binding means not detected with the bait.

Amino acid sequences for entries named in this document (tags omitted).
UniProt P10591: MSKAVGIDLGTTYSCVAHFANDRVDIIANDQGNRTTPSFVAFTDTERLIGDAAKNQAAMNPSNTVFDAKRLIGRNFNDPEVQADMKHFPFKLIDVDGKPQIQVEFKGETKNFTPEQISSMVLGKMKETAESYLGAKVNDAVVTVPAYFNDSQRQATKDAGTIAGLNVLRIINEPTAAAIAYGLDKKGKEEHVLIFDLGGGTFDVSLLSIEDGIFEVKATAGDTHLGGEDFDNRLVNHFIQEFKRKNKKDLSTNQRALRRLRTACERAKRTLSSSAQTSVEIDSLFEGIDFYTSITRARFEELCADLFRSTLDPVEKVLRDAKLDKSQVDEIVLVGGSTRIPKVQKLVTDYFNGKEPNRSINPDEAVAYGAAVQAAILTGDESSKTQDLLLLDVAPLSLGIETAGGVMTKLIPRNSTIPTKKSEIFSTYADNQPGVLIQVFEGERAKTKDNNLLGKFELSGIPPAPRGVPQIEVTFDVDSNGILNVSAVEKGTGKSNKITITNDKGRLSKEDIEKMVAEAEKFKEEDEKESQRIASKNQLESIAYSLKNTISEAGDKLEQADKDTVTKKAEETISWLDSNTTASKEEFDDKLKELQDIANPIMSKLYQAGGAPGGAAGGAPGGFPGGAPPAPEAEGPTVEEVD
UniProt P53114: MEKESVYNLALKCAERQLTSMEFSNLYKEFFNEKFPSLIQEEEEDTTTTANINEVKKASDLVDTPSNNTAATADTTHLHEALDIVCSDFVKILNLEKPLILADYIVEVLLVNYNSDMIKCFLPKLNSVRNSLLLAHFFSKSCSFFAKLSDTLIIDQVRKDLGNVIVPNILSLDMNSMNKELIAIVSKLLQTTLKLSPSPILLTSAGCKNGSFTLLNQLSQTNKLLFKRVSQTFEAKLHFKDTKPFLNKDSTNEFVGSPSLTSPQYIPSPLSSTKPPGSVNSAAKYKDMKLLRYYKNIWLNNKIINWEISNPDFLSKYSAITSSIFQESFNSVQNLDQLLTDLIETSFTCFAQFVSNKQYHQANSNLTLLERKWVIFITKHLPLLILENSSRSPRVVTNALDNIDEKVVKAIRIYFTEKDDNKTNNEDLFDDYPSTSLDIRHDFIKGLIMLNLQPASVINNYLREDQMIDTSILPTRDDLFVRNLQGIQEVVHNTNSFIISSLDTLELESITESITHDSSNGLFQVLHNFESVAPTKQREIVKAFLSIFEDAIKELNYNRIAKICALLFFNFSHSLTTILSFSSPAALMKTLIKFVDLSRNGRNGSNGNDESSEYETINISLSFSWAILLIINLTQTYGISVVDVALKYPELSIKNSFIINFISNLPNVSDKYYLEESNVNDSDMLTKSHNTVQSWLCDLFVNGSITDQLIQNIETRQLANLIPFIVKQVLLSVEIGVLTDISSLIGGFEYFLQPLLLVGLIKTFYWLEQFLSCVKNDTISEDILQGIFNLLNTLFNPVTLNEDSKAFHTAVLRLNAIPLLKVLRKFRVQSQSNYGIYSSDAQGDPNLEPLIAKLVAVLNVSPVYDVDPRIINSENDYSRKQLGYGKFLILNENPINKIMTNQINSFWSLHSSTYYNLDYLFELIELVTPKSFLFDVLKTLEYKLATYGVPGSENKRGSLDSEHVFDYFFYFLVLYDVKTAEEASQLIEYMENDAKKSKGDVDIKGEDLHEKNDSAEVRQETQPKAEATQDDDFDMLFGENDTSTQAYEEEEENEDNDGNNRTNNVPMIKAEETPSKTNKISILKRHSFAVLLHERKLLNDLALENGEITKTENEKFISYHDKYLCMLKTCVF

T1: α4/Pre6-FH (S. cerevisiae) (UniProt P40303)
T1 sequence: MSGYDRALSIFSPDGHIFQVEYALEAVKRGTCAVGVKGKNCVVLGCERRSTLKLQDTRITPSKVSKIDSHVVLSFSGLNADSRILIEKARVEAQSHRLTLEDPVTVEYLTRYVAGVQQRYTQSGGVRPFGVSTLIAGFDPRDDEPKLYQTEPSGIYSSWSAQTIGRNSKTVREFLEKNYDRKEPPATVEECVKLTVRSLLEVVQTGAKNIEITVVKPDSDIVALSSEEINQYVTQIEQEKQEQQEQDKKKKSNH

B1: Sse2 (protein, UniProt P32590 1-693)
chain: MSTPFGLDLGNNNSVLAVARNRGIDVVVNEVSNRSTPSLVGFGPRNRYLGESGKTKQTSNVKNTVENLKRIIGLKFKDPEFDIENKFFTSKLVQLKNGKVGVEVEFGGKTHVFSATQLTAMFIDKVKHTVQEETKSSITDVCLAVPVWYSEEQRYNIADAARIAGLNPVRIVNDVTAAAVSYGVFKNDLPGPEEKPRIIGLVDIGHSTYTCSIMAFRKGEMKVLGTAYDKHFGGRDFDRAITEHFADQFKDKYKIDIRKNPKAYNRILIAAEKLKKVLSANTTAPFSVESVMDDIDVSSQLSREELEELVEPLLKRVTYPITNALAQAKLTVNDIDFVEIIGGTTRIPVLKKSISDVFGKPLSSTLNQDEAVAKGAAFICAIHSPTLRVRPFKFEDIDPYSVSYTWDKQVDDEDRLEVFPANSSYPSTKLITLHRTGDFSMKAVYTHPSKLPKGTSTTIAKWSFTGVKVPKDQDFIPVKVKLRCDPSGLHIIENAYTTEDITVQEPVPLPEDAPEDAEPQFKEVTKTIKKDVLGMTAKTFALNPVELNDLIEKENELRNQDKLVAETEDRKNALEEYIYTLRAKLDDEYSDFASDAEKEKLKNMLATTENWLYGDGDDSTKAKYIAKYEELASLGNIIRGRYLAKEEEKRQALRANQETSKMNDIAEKLAEQRRARAASDDSDDNNDENMDLD
B2: Rga1 (RhoGAP for Cdc42) (protein, UniProt P39083 1-1007)
chain: MASTAPNEQFPSCVRCKEFITTGHAYELGCDRWHTHCFACYKCEKPLSCESDFLVLGTGALICFDCSDSCKNCGKKIDDLAIILSSSNEAYCSDCFKCCKCGENIADLRYAKTKRGLFCLSCHEKLLAKRKYYEEKKRRLKKNLPSLPTPVIDNGHTDEVSASAVLPEKTFSRPASLVNEIPSGSEPSKDIETNSSDIVPHFITGYNDSDDNSGSSKFGSNVSIDVIGPEENSTEHVNDDVKEEAEAPSANMSLNVATDPTLSCKEPPSHSRNLLNKTPLRNSSGQYLAKSPSSYRQGIIVNDSLEESDQIDPPNNSSRNASELLTSVLHSPVSVNMKNPKGSNTDIFNTGEISQMDPSLSRKVLNNIVEETNALQRPVVEVVKEDRSVPDLAGVQQEQAEKYSYSNNSGKGRKISRSLSRRSKDLMINLKSRATGKQDSNVKLSPASKVTSRRSQDLMRDNDSHTGLDTPNSNSTSLDILVNNQKSLNYKRFTDNGTLRVTSGKETALEEQKNHSFKSPSPIDHLLQSPATPSNVSMYRTPPLDSSLTFDRRNGSSYSNQNYSIPSWQKTPKTQLENSDNFEEQKETLYENSESRNDPSLDKEIVTAEHYLKQLKINLKELESQREELMKEITEMKSMKEALRRHIESYNSEKNKLYLDSNELSNNPPMINEISLGESPPVKHVATASSVARSSVKPKFWKFFSSAKPQTEQSIQGVSTNNTNSIVKSAPVLLSAPSSGSNSGRLEISPPVLQNPNEFSDVRLVPIENDANMGQSKDGEEYLDGSNLYGSSLVARCNYENNEIPMILSVCIDFIESDEENMRSEGIYRKSGSQLVIEEIEKQFSAWKVQQNTETPNILTEQDLNVVTGVLKRYLRKLPNPIFTFQIYEPLMRLVKSKKMMENLPFVGGKLSLEAKNSDTYMSSKSALKNILEDLPREHYRVLRVLSEHIEKVTRYSHWNRMTLYNLALVFAPGLIRDFSGEKDIIDMKERNYIVAFIFGNYKDILT

Target: T1, α4/Pre6-FH (S. cerevisiae)
Experiment: affinity purification with mass spectrometry; α4-FH captured from yeast extract on anti-FLAG resin in FLAG buffer (50 mM Tris-HCl, 150 mM NaCl, pH 7.4), 4 °C, eluted with FLAG peptide; Superdex200 in 26S buffer; silver-stained bands of fraction 25 analysed by LC-MS

Row | Molecule | binding
1 | Ssa1 (from UniProt P10591 1-642) | binds
2 | Tdh, glyceraldehyde-3-phosphate dehydrogenase | no binding
3 | Nut1, negative regulator of Urs2 of the HO promoter (from UniProt P53114 1-1132) | no binding
4 | B1 | binds
5 | B2 | no binding
